We go through one compound from patent publication US20240115667A1 (priority 2020, published 2024).

Series [1] concerns SARS-CoV-2. Conditions: diphenhydramine alone.
For series [2], the system named is SARS-CoV-2. Conditions: cited from earlier work.
In series [3] the test system is SARS-CoV-2. The series is described as follows: microbe, parasite or virus in culture. Conditions: Vero E6, 72 h, MOI 0.3.

Converted amounts (≈) assume the structure as drawn. Where two headings read alike, the source gives them in different places.

Consider `CN(C)CCOC(c1ccccc1)c1ccccc1` [Diphenhydramine], for which the “Cytotoxicity EC50 relative to plaque reduction assay EC50” value in series [1] was “about 7 times higher”. Further, in series [2], the “EC50 for SARS-CoV-2 by plaque reduction assay” value is 17.4 µg/mL. In addition, the EC50 in series [2] (read-out: EC50 for SARS-CoV-2 by plaque reduction assay) is 59.6 µM; in series [3] (Severe acute respiratory syndrome coronavirus 2, Vero C1008, 72 h, read-out: Diphenhydramine EC50, with 0 μg/mL lactoferrin), 155 µg/mL; in series [3] (Severe acute respiratory syndrome coronavirus 2, Vero C1008, in Homo sapiens, 72 h, read-out: Diphenhydramine EC50, with 50 μg/mL human unsaturated lactoferrin) it was 40.8 µg/mL (≈ 160 µM); in series [3] (Severe acute respiratory syndrome coronavirus 2, Vero C1008, in Homo sapiens, 72 h, read-out: Diphenhydramine EC50, with 100 μg/mL human unsaturated lactoferrin), 43.3 µg/mL (≈ 169 µM); in series [3] (Severe acute respiratory syndrome coronavirus 2, Vero C1008, in Homo sapiens, 72 h, read-out: Diphenhydramine EC50, with 200 μg/mL human unsaturated lactoferrin), 41 µg/mL (≈ 161 µM); in series [3] (Severe acute respiratory syndrome coronavirus 2, Vero C1008, in Homo sapiens, 72 h, read-out: Diphenhydramine EC50, with 400 μg/mL human unsaturated lactoferrin), 40.4 µg/mL (≈ 158 µM). The EC50 in series [3] (Severe acute respiratory syndrome coronavirus 2, Vero C1008, in Homo sapiens, 72 h, read-out: Diphenhydramine EC50, with 800 μg/mL human unsaturated lactoferrin) was found to be 42.8 µg/mL (≈ 167 µM).
